Test results: publication PMC5703999, “The E. coli dicarboxylic acid transporters DauA act as a signal transducer by interacting with the DctA uptake system” (Scientific Reports, 2017)
These are yes or no findings as the source states them, for the method shown. Where a sequence is shown, tags or fusion partners need not be part of it.

Target: MalE-DctA helix 8b-T25 fusion (E. coli)
Assay: two-hybrid; bacterial two-hybrid (BTH): T18 and T25 fusions co-transformed in E. coli BTH101 (cyaA-), grown overnight in LB at 30 °C; beta-galactosidase activity; background below 150 Miller units; the reporter strain expresses chromosomal DctA and DcuS

binding: no binding
B1: DauA fused to the T18 or T25 domain of adenylate cyclase (protein, UniProt P0AFR2 1-559)
chain: MNKIFSSHVMPFRALIDACWKEKYTAARFTRDLIAGITVGIIAIPLAMALAIGSGVAPQYGLYTAAVAGIVIALTGGSRFSVSGPTAAFVVILYPVSQQFGLAGLLVATLLSGIFLILMGLARFGRLIEYIPVSVTLGFTSGIGITIGTMQIKDFLGLQMAHVPEHYLQKVGALFMALPTINVGDAAIGIVTLGILVFWPRLGIRLPGHLPALLAGCAVMGIVNLLGGHVATIGSQFHYVLADGSQGNGIPQLLPQLVLPWDLPNSEFTLTWDSIRTLLPAAFSMAMLGAIESLLCAVVLDGMTGTKHKANSELVGQGLGNIIAPFFGGITATAAIARSAANVRAGATSPISAVIHSILVILALLVLAPLLSWLPLSAMAALLLMVAWNMSEAHKVVDLLRHAPKDDIIVMLLCMSLTVLFDMVIAISVGIVLASLLFMRRIARMTRLAPVVVDVPDDVLVLRVIGPLFFAAAEGLFTDLESRLEGKRIVILKWDAVPVLDAGGLDAFQRFVKRLPEGCELRVCNVEFQPLRTMARAGIQPIPGRLAFFPNRRAAMADL
